Reference: patent US20250074997A1 (PERSONGEN BIOTHERAPEUTICS SUZHOU, published 2025)
No constants are given. Whether binding was seen depends on the method and setting. Some binding calls cover weakened binding; strength is not graded here.

Sequences of proteins named here, by UniProt entry; tags and fusion partners are left off. A change or cut given only in a name is not applied to a line headed by its entry. Residues count along the entry.
UniProt Q03405: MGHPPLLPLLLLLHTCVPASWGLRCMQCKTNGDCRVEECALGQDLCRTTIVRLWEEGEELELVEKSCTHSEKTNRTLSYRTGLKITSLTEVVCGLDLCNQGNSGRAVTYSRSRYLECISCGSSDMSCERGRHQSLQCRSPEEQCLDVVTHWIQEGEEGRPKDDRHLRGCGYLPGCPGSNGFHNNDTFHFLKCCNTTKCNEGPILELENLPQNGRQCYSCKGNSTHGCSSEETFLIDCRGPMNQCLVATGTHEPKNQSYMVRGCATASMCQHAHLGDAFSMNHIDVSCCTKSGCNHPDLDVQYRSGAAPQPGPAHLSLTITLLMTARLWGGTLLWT
UPAR on CHO-S/UPAR cells: residues 23-305 of Q03405

Assays:
[1] = molecular target: UPAR on CHO-S/UPAR cells (UniProt Q03405); test: flow cytometry on CHO-S/UPAR and parental CHO-S cells, purified antibody, PE-anti-human IgG
[2] = molecular target: T1, UPAR-His recombinant protein (UniProt Q03405 23-303); test: SPR (BiaCore T200), UPAR recombinant protein immobilised on CM5 chip
T1 construct: range 23-303; Expressed in 293 cells, purified on Ni-NTA; Biotinylated in the uPA ELISA; also called UPAR-His antigen; biotinUPAR-His; not shown: C-terminal His tag

| Binder | binding [1] | binding [2] |
| --- | --- | --- |
| pcDNA3.4-SDAB20-7-26-2-1-B4-hFC (Fc fusion, not shown: a dimerising Fc or GST) QVQLVESGGGLVQPGGSLRLSCAASGFTLDYYAIGWFRQAPGKEREGVSCISSTGGSTNYADSVKGRFTISRDNAKNTVYLQMNSLKPEDTAVYYCAADTHYLTVCYDRLGFDYWGQGTQVTVSS | binds | – |
| pcDNA3.4-SDAB20-7-26-2-1-F9-hFC (Fc fusion, also called 1-F09; not shown: human IgG1 Fc from vector pcDNA3.4-hIgG1-Fc2) QSLLVESGGGLVQPGGSLRLSCAASGFSLDYYAIGWFRQAPGKEREEVSCISSGGGSTNYADSVKGRFTISRDNAKNTVYLQMNSLKPEDTAVYYCAAKRNFMLYLVQCPYEYDYWGQGTQVTVSS | binds | binds |
| pcDNA3.4-SDAB20-7-26-2-1-F10-hFC (Fc fusion, not shown: a dimerising Fc or GST) QVQLVESGGGLVQPGGSLRLSCAASGSILSIRAVGWYRQAPGKQRELVALITSDGTTHYALSVKGRFTISRDNAKTTVYLQMNSLKPEDTAVYYCNREDYARRYWGQGTQVTVSS | binds | – |
| pcDNA3.4-SDAB20-7-26-2-1-G2-hFC (Fc fusion, not shown: a dimerising Fc or GST) QSQLAESGGGLVQPGGSLRLSCVASRFSLDAYAIAWFRQAPGKEREGVSCISSIGGRTNYADPVKGRFTISRDNAKNTAYLEMNSLQPEDTAVYYCAAVQRLFGPCLLSGGMDYWGKGTPVTVSS | binds | – |
| pcDNA3.4-SDAB20-7-26-2-3-E04-hFC (Fc fusion, Llama VHH fused in tandem with human IgG1 Fc, expressed in 293 cells, purified on protein A; not shown: human IgG1 Fc from vector pcDNA3.4-hIgG1-Fc2) QLRLVESGGGLVQPGGSLRLSCAASGFTLDYYDIGWFRQAPGKEREGVSCIGRISGDTDYAESVKGRFTASRDNAKNTVYLQMNSLKPEDTAVYYCAAERRFFGGGCRRSVDNMDSWGKGTLVTVSS | binds | binds |
| pcDNA3.4-SDAB20-7-26-2-3-E03-hFC (Fc fusion, not shown: a dimerising Fc or GST) AVQLVDSGGGLVQAGGSLRLSCAASGIRLSSNAMAWYRQAPGKQRGLVALITSDGTTNYVDSVKGRFTISRDNAKNTVYLQMNSLKPEDTAVYYCKREPYLSTRGYWGQGTQVTVSS | binds | – |
| pcDNA3.4-SDAB20-7-26-2-1-H8-hFC (Fc fusion, not shown: a dimerising Fc or GST) QRQLVESGGGLVQPGGSLRLSCAVSEFTLDYYAIGWFRQAPGKEREGVSCISSSGGSTVYADSVKGRFTISADNAKNTVYLQMNSLKPEDTAVYYCAAGSLLLFRLCVSRLYEYDYWGQGTQVTVSS | binds | – |
| pcDNA3.4-SDAB20-7-26-2-1-G1-hFC (Fc fusion, not shown: a dimerising Fc or GST) QVQLVESGGGLVQPGGSLRLSCAASGNSLRRYAIGWFRQAPGKEREGVVCISTVGGSSYYVDSVKGRFTISEDNVKNTAYLQMNSLEPEDTAVYYCAAANRLYCPAYGSAGYDYWGQGTQVTVSS | binds | – |
| pcDNA3.4-SDAB20-7-26-2-1-F1-hFC (Fc fusion, not shown: a dimerising Fc or GST) EVQLAESGGGLVQPGGSLRLSCAASGFTFSSYTMSWVRQAPGKGLEWVSAIDSDGGVTSYADSVKGRFTISRDNAKNTLYLQMNSLKPEDTAVYYCANGGYCSGYGCYPRLLSQGTLVTVSS | binds | – |

The next lines start with the values.

| binding [1] | binding [2] | Binder |
| --- | --- | --- |
| binds | – | pcDNA3.4-SDAB20-7-26-2-3-E09-hFC (Fc fusion, not shown: a dimerising Fc or GST) AVQLVDSGGGLVQPGGSLRLSCAASGFTFSSYAMGWARQVPGKGLEWVSIIYRDGNTYYTDSVKGRFTISRDNAKNTVYLQMNSLKPEDTAVYYCAPVETVAARRRDYWGQGTQVNVSS |
| binds | – | pcDNA3.4-SDAB20-7-26-2-3-E10-hFC (Fc fusion, not shown: a dimerising Fc or GST) AVQLVDSGGGLVQPGGSLRLSCAASGFTFSSYAMGWARQVPGKGLEWVSIIYRDGNTYYTDSVKGRFTISRDNAKNTVYLQMNSLKPEDTAVYYCAPVETVAARRRDYWGQGTQVNVSS |
| binds | binds | pcDNA3.4-SDAB20-7-26-2-3-H02-hFC (Fc fusion, Llama VHH fused in tandem with human IgG1 Fc, expressed in 293 cells, purified on protein A; not shown: human IgG1 Fc from vector pcDNA3.4-hIgG1-Fc2) QLTLVESGGGLVQPGGSLRLSCAASEFTLDYYAIGWFRQAPGKEREGVSCISSSDGSTYYADSVKGRFTISRDNAKNTVYLQMNSLKPEDTAVYYCAIGGLLLLRLWERGNYEFDYWGQGTQVTVSS |
| binds | – | pcDNA3.4-SDAB20-7-26-2-3-E06-hFC (Fc fusion, not shown: a dimerising Fc or GST) EVQLVESGGGLVQAGGSLTLSCVASASGSILRLNAMGWYRQAPAKQRELVALITRDGSTNYPDSVKGRFTISRDNAKNTVYLQMSSLSPEDTAVYYCYVQNHYSNYWGQGTQVTVSS |
| binds | – | pcDNA3.4-SDAB20-7-26-2-3-G07-hFC (Fc fusion, not shown: a dimerising Fc or GST) RLQLVESGGGLVQPGGSLRLSCAVSGKALDYYSIGWFRQAPRKQREGVSCISSSGGSTNYADSVKGRFTISRDNAKDTVYLQMNSLKPEDTADYYCAVVSTVLCGLGIYEYDYWGQGTLVTVSS |
